Laboratory results: the supplement of paper PMC3334620
Over roughly 33,000 sequences, “E-score (-0.5 to 0.5)” has its median near -8e-05; the highest 2% begin near 0.23. Some of the results follow.

target: T1, Nrg2 (UniProt P38082); assay: PBM E-score (8-mer binding enrichment) (E-score (-0.5 to 0.5)); higher = stronger / more preferred TF binding; details: protein concentration: 100 nM; construct: GST-full length
T1 sequence: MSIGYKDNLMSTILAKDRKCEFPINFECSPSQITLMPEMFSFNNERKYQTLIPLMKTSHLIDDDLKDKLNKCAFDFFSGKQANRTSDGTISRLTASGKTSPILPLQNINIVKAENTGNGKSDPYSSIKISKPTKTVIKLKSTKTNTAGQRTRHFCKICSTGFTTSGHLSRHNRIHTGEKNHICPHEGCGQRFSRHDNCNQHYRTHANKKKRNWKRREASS
How it was run: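 Bound GST-tagged yeast transcription factors, applied at about 100-200 nM to double-stranded universal all-10-mer Agilent arrays, were detected with fluorescent anti-GST. Scans were normalised with masliner. A modified Wilcoxon-Mann-Whitney statistic, the E-score, was assigned to each ungapped eight-base word pooled with its reverse complement by the Universal PBM Analysis Suite.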

Sequence | PBM E-score
AAGGTTAG | -0.0412
AGATCCCG | 0.228
GGCCAGTA | 0.163
CGTATTTA | 0.248
CAGGGCCC | 0.42
ACTCTCAA | -0.159
AGGCTACA | -0.0869
ATGACACC | 0.0972
ACTCCTAG | -0.186
GGGGCTGA | -0.0972
TCGGAACA | 0.313
AATGGACG | 0.141
GAGCGTCC | -0.271
AGAGTCGC | 0.0601
AAGGGCCT | 0.0464
ATTTAACG | -0.0637
GAAACCGC | 0.153
AATGTTGG | 0.064
CGTAGCCC | -0.252
CCAATGCC | -0.132
ACGTATCT | -0.0443
GCACTACA | -0.139
ATCGATTA | 0.0753
AATATCTG | 0.0127

Sequence | PBM E-score
TAGTTCCA | 0.0983
CACTGGGA | -0.0219
AGGGGGGA | -0.241
AATGGTGC | -0.0715
ATTCTTCA | 0.0174
GACTGATA | -0.2
CGGTACAC | -0.182
AACAAGAC | 0.147
ACTAACGC | -0.045
AGCTCCGC | -0.0361
ACTGAACC | -0.111
CTGATGTC | 0.228
GGGCATCA | -0.154
AACGGCGA | 0.303
ATCTTAAC | 0.0939
CGCGCGGC | 0.296
CAAAAAGC | 0.102
AACAATTC | -0.00547
AGGTTTAG | -0.18
ATTGTCCA | 0.206
CAGGTCTC | -0.152
TATCCCGA | 0.118
AATTAGTG | 0.146
CCTGGCAC | -0.106

Sequence | PBM E-score
CTATTAAA | 0.151
TCGTTCAA | 0.039
GAATCCCA | 0.0684
CAGGGCCG | 0.088
CGGAGTCA | -0.0858
AGTATAAC | -0.131
CCCGGCTA | -0.28
GGTTAACA | 0.0255
CAACCCTC | 0.0136
ATTGCTGC | 0.138
ACCTTAGA | -0.0789
AGAAGCTG | -0.0403
AGGATGCC | -0.18
ACAGATTA | -0.118
AGTAGAAC | -0.229
GGATCTTA | 0.0778
ATCATAAC | 0.0629
CCAGTAGA | -0.0606
CTAGAAGC | -0.2
AGCATTCG | -0.118
AAGGAAGT | 0.0362
ATCTTGTG | 0.0148
CCCCGGCC | -0.266
CATAACCG | -0.0644

Looked up above:
Entry of AAGGAAGT under PBM E-score: 0.0362
Entry of CTAGAAGC under PBM E-score: -0.2
Entry of CAACCCTC under PBM E-score: 0.0136
Entry of CCCCGGCC under PBM E-score: -0.266
Entry of ATCTTGTG under PBM E-score: 0.0148
Entry of AGCATTCG under PBM E-score: -0.118

A different layout for some results above:
Sequence	PBM E-score
CTATTAAA	0.151
TCGTTCAA	0.039
GAATCCCA	0.0684
CAGGGCCG	0.088
CGGAGTCA	-0.0858

More results

Sequence | PBM E-score
CGCCTCGA | 0.16
ATCCTCAG | 0.1
AACAAAGC | 0.0731
AGTTTCAT | 0.274
CCCCTACA | -0.118
ACGCAAAA | 0.0462
GCAGCATA | 0.0385
CCACCGCA | 0.0791
TACATTCA | -0.00365
CCCGCGCA | 0.128
TGACGACA | 0.145
GGTTTTAC | -0.257
CCTTCCGA | -0.252
TACAGACA | -0.00813
GCACTGGC | -0.204
AACGGTAG | -0.0377
ATGCTTAC | -0.198
GATCGTGC | 0.183
CTTCGAAG | 0.0935
CACCAGAC | -0.0776
GAAAAGCA | -0.0271
CCGCCGCC | 0.0918
AATTGGAG | -0.0651
GCAAGCAA | 0.00372

Sequence | PBM E-score
CATGCGAC | 0.0328
CAAATTTA | 0.0933
GAGCACAA | 0.0508
ACTCGTCC | -0.116
GCGCGCGA | 0.251
ACAGATGT | -0.0767
AGTCGACT | 0.243
ACTTGGAG | -0.108
ACTATGGC | 0.0287
AGGTTTGC | 0.0195
GGTGCGCA | 0.107
ATACCCAC | 0.0337
ATTCGACG | 0.138
AGTGTGGA | -0.0249
TATTCAAA | 0.147
GACGAAAC | 0.00944
ACATTCCC | 0.064
CTCATCAG | 0.247
GCTTCACC | -0.131
TCTCCCAA | -0.0633
ATGTTTAG | 0.188
AGGATTTA | -0.00422
AGGACCGA | -0.0557
CAGCGTGA | -0.0547

Sequence | PBM E-score
AGTGTCAT | 0.0749
AAGATAAA | 0.131
ACGCGAGG | 0.0848
AAGCGGTA | -0.176
CCTCTATC | -0.0554
AACTTCGC | 0.0614
CTGCGCCA | 0.083
ATAATGAC | -0.2
AGGTTGAG | -0.25
TGTCCGAA | 0.143
AACCTCTA | -0.1
CTGTTTTC | -0.0788
ACAGGAGC | -0.0278
GTGCGGTA | 0.0282
CCAGCAGG | -0.249
AGTAGAGC | -0.226
AGCTCAAT | 0.114
CTTACTCA | -0.154
AACTGGAG | -0.0807
CCGGTACC | -0.221
AACGTATC | -0.0524
ATAGAAAC | 0.0807
AGGTCTGC | -0.178
AAGAGCTT | -0.0877

Sequence | PBM E-score
GTAACGGA | 0.0938
GTAAGGAC | -0.044
ACAGGACG | -0.108
GTTTAAAC | -0.0462
AATACTAC | 0.0385
ACGCTATC | 0.0664
AGTAGACG | -0.0233
GAAGTGTA | -0.109
CCTCCGTC | -0.174
ATACTATC | 0.013
GCGTGCCA | -0.097
GATTCCAA | 0.113
CCCAGGAC | -0.142
CGTGTAAG | 0.0529
TATGACCA | -0.0888
GCTCGTCA | 0.0452
GGCTAACC | -0.235
GAAGAAAC | 0.11
CTAATGTA | -0.0193
ACAGCTAC | -0.00789
AAACTAAA | 0.168
TAACCACA | -0.0254
GTAGGTAA | 0.00715
ATAACGCA | -0.0126

Sequence | PBM E-score
CATCGCTA | 0.0214
TGTAAACA | -0.0786
CCGGAAAG | 0.00592
CGGGAAAG | -0.107
ACGGTCAT | 0.0704
CTTCTGTC | 0.0795
CTCTGACC | -0.127
CGCATTTC | 0.135
ACATGTAC | -0.004
ACCCATGA | -0.0351
GCATACCA | -0.0473
ACCCCCGA | -0.302
TGGATCAA | 0.00272
ACGGATGC | 0.0854
CCAAATCA | 0.0327
CACGGAGC | -0.0377
GGGAACTA | 0.0777
GGACGTAA | -0.0443
GATGAAGA | -0.0527
AGAGTGGC | 0.00048
GGCTCCAA | -0.196
ATCGCATC | 0.152
GAGCCCGC | -0.0724
AGTCTGTA | -0.183

Sequence | PBM E-score
CAGTCGAC | 0.137
ATAGACCC | 0.218
ACGGAACA | 0.0339
CAAGCTTC | -0.12
ACCGGCTG | -0.192
CTTACTGC | 0.0442
GTTATCAA | 0.0558
CATACCCC | -0.0132
GCGACGTA | -0.0386
ACCGCGAA | 0.153
CCAATAAC | 0.0775
GCCCCTCA | -0.0656
GGTCATAC | -0.0955
AACGTGAA | -0.112
CTTATGGA | -0.157
ATCAGCGA | -0.00809
ATGATGGA | 0.0454
ATCGATCG | 0.16
AATAGCTC | -0.0691
CGACACGC | 0.0115
CAGGCTGG | -0.153
CTAATCCC | 0.0443
AAGCACAC | -0.0731
CTATCGGA | -0.00722

Sequence | PBM E-score
ATCCCGGC | 0.00208
AAAGCGCG | 0.0719
AAGTCTGC | -0.306
GCAATATA | 0.125
ATTTCCGA | 0.054
TGTTTCAA | 0.00964
CTAGACCC | -0.028
AACAAAGA | 0.00136
AAACAGCA | 0.0258
CTGTGCGA | 0.0414
CTGGAGTA | 0.0654
CGTGAGTC | -0.178
CGCCCATC | -0.0023
GCTACGGA | -0.247
CAACACGC | -0.0143
AGACTTCG | -0.091
ACCCCCAA | -0.281
ACGCCTAA | -0.0589
AGTTCTGC | 0.0858
AAACCTCC | -0.115
ACTAATAA | 0.182
CGCGTACG | 0.0886
ATGGGCTC | 0.0622
ACTCCGAT | -0.0257

Sequence | PBM E-score
CGATCTAG | -0.0397
AGACCTTG | -0.0794
GAGTCAAA | -0.198
AGCTAAGA | 0.0244
ACTGTTGC | 0.0652
GCCGACCC | -0.145
ACGTCATC | -0.0886
CATTCTCG | -0.00943
CCATGGGC | -0.00676
CACATAAA | 0.0485
ATTGATAC | 0.274
CAACACTC | 0.115
GGTGTGAC | -0.218
GCCGTGTA | -0.0106
TAGTCAGA | -0.159
CGCCCATA | 0.0857
GTCGAGAC | 0.112
TTGCCCAA | -0.116
CGTCGTAG | -0.0873
CGAGCGAA | 0.0827
CTGAACTA | -0.0495
AGTCCGTG | -0.0911
CCTTGACC | -0.0242
GGCGAGAA | 0.16

Sequence | PBM E-score
GAGGGTCC | 0.282
AACTCATG | 0.0897
CGTATGTA | -0.034
TACTCACA | 0.0727
ACGGCACG | -0.23
AATTGCAG | 0.11
ACCCAGCC | -0.261
CATGATCC | -0.125
GCGCCGAA | 0.0375
TAGTTAAA | 0.123
GGCGGTCA | -0.163
AAAGCCGA | -0.182
CCTACCTA | -0.193
CCGTGGGA | -0.176
CAGAGCCC | -0.0162
TGAATTCA | 0.167
AGATGTTA | -0.147
GGACATCA | 0.0631
AAAAAGTT | -0.0781
AGATATGA | 0.218
AAACGCCT | -0.314
CAGATACG | -0.0437

Reformatted: entries from further up
CATGATCC
  PBM E-score: -0.125
GCGCCGAA
  PBM E-score: 0.0375
TAGTTAAA
  PBM E-score: 0.123
